From publication doi:10.1101/2021.05.25.445618
No constants are given. Whether binding was seen depends on the method and setting. In cells and extracts the contact can be indirect. A yes stands for co-enrichment or nearness to the bait. Other partners may have been found. For part of these data: Tags and fused reporters may be left off the sequences shown.

B1: Lmo1515 CymR analog (protein, UniProt Q8Y711 1-140)
chain: MKITTKGRYGLTITLELAKRIGDGPISLRSIAQDKNLSEHYLEQLIGPLRNAGIVKSIRGAHGGYVLNGDPEKITAGDIIRTLEGPIVLVESMEDEEAAQRELWTRMRNAVRDVLDQTTLADLLKHSTDSELTDGYMFYI
B2: glycerol-3-phosphate dehydrogenase GlpD (enzyme, UniProt Q8Y7I4 1-558)
chain: MVQLFSAFDRETIERNLQEEKFDLVIVGGGITGAGIALDATSRGMSVALVEMGDFASGTSSRSTKLVHGGLRYLQQFEIKEVADLGKERAIVYENGPHVTTPEWMMLPFHKGGNMGKTTASFGIRLYDYLAGVKKNERRKILSAKETLAKNPFVKKDGLKGSGYYVEYRTDDARLTIEVMKKAVELGANAINYTKAEHFLYDDNKQVVGVTVTDRLSGKAYDIKGHRVINAAGPWVDKVRKLDYATNNKHLRLTKGIHLVIDKQKFPMEQAVYFDTPDGRMVFAIPRDKKVYVGTTDTVYDEAVINPKALESDHNYVIKAINYMFPDVHITEKDIESSWAGVRPLIYEEGKDPSEISRKDEVWFSESGLITMAGGKLTGYRKMAEKLLDDVSKTLAKETGKKYKTVQTKHLPISGGDIGGSEQLEAFLSKKAKEGNNRFGWTLEEGREMAKRFGSNIDQLFTYAQEHKEQNETTLPNSLYAELRYSIQHEAVTTPIDFLLRRTGYLLFDMPYLLEWKDAVVDEMAKQFHWSDDVKQTYIEELNIQINDAREPADWHDR
B3: Lmo2168 putative lactoylglutathione lyase (protein, UniProt Q8Y5A1 1-129)
chain: MTAKMLHTCIRVKNLTESITFYEKALGLKEVRRKDFPDFEFTLVYMAFEEGGFELELTYNYDQKEAYDLGNGYGHLAVGVLDVRALLKEHQEAGFTVTDLKGLPGEDPFYYFLTDPDGYKTEIIQDGAL
B4: Lmo2712 gluconate kinase (enzyme, UniProt Q8Y3W7 1-504)
chain: MTSKPYIMGVDIGTSSTKAVLFNQRGEVIFRQATHYELITDETGKAEESPTEIFDAVLTSIQAVMKNINTEELAGISFSSAMHSLIMVGSNGELLTECITWADGRSSETLEKVKRDNYLFQLYEATGTPIHPMSPFAKICWLKEEKPTLFKRTEKFVDIKSYILYRLFGVWVMDESLASGTGLYNIMEHDWEFEAMEIVKLTPDFLPKVVPETYQLAGVKKEYAELMGIPENLPFIIGGSDGALANIGIQATGQNDVTITVGTSGAVRKLTDQFQIDSRGRTFCYGAGDGYFIAGGAVNNGGKVVEWGLQQFGSEAEISRRDFASFIAKIEEVPPGAAGLLFQPYLLGERAPFWTNDIRGGFVGLTINHTKAHFIRAILEGVAFNLAEVYEAVSAPDDIIYVTGGISAHDAWCKLLADILNREIRVPHTIEGSSLGAAIIGMRSLGILKDLNLKHTLPIKAVYHPSENVLKYAELRLIFKQVTTQLMSSYSQLNSWQKKFDINS
B5: MreB (protein, UniProt Q8Y6H3 1-330)
chain: MFGTTTIGIDLGTANILVYSKEKGIILNEPSVVALNTNDGTVLAIGQEAKEMIGKTPTSISAVRPMKDGVIADFDLTSGLLREIMRRISVSGVRKPNVVVCTPTGATSVERRAISDAVRSTGARSVVLIEEPVAAAIGADLPVAEPVANVIVDIGGGTSEIAIISYGGVVSSTSIRTGGDHMDEEIIQYIRKNYNLLIGQTTAERIKMELGYAPIEHVTQTADIRGRDLLTGLPKTIQVSSTEIQSALAETLQRILEAIRNTLELCPPELSGDIVDRGIILSGGGSLLQGFRDWLVEEIDVPVHMAPSPLESVAIGTGRSLVFADKLAKN
B6: catalase (enzyme, UniProt Q8Y3P9 1-488)
chain: MTDRKNLTTNQGVPVGDNQNSMTAGRKGPTLIEDYVLIEKLAHFDRERVPERVVHARGAGAHGKFVTKKSMKKYTMAKFLQEEGTETEVFARFSTVIHGQHSPETLRDPRGFSVKFYTEEGNYDFVGNNLPVFFIRDAIKFPDVIHSLKPDPRTNIQDGNRYWDFFSLTPEATTMIMYLFSDEGTPASYREVRGSSVHAFKWINEEGKTVYVKLRWVPKAGIVNLSTEQASQIQAKEFNHASRDLYEAIENGDYPEWDLYVQVLDPKDLDSFDFNPLDATKDWFEDVFPYEHVGTMTLDRNPDNIFAETESVGFNPGVLVRGMLPSEDRLLQGRLFSYSDTQRHRVGPNYLQLPINSPKAPVANNQRDGHMPFKQQTSSINYEPNSYDTEPKENPAFIEPEQEIRGDISGRLIAEKPNNFGHAKEVWDRYSNAERAALVKNIVDDWSQVREDIKIRNLRNFYQVDPEFASRVAAGTGINLEEHVTDLK
B7: Lmo2182 ferrichrome ABC transporter (protein, UniProt Q8Y587 1-259)
chain: MEVRDVNFSYNGTDAILKNVSFTIQKNKINTIVGPNGSGKSTLLEILARLLSPNSGDVLLEGKSIFEWKAKEFAQNVAIVHQSNVLPNELMVKELLYFGRLPYKNWRMTRTKEDDLAVERALMQTELTEKAEKFVDSLSGGERQRVFIATALVQDTPILLLDEPTTFLDMYFQLEILELVKRLNQEENLTIVMILHDLNQALMYSDHLIVMKNGEVVAKGEPEELLTTDLIAETYGVVADVLNDANNGKYIVPQRRKEF
B8: FhuC (protein, UniProt Q8Y5U5 1-274)
chain: MKDLHTDNLQISYDKRIIVDGLDIAIPANKITALVGANGSGKSTILKTMSRLMKPSKGAVYLDGKTIHSQPTRDVAKQLAILPQNPSAPDGLTVFELISYGRSPHQSSFKSITAKDREIIFWSLRVTNLTEFADRPIDSLSGGQRQRAWIAMALAQETDVLFLDEPTTFLDMTHQLDVLNLLKQLNQSENRTIVMVVHDLNHASRYAHHMIAIKEGKVIAEGTPTSVMTEQTLEDVFNIKADILIDPRSGVPLCLPYETCNGCEIVKELDSIAK
B9: Lmo1813 L-serine deaminase (enzyme, UniProt Q8Y684 1-220)
chain: MKFNSVFDIIGPVMIGPSSSHTAGASRIGAIARAVFNEQPSQVDIHLYGSFAKTYKGHGTDVALIGGLLGFEPDDPRMKESPKLAEEWGMRIQFIEEVEEPPHPNTVKLVLKHGMQQMTLIGASIGGGKVEIIRLNEFELEFTGTAPAILILHQDKFGAIAAVSSVIADHKINIGQMKVSRKVKGDEALMVIEVDQQVEQALISKIAELSGIYQVASVMI
B10: HrcA (protein, UniProt B8DE36 1-345)
chain: MLTERQLLIFRAIIDHFTWTIQPVGSKNLLKEKGLPYSSATIRNEMGVLEEYGFIEKTHSSSGRVPSEKGYRFYVDYLLQPKKLDKSDRQMIRSFFSENYYEMEGLIQNSALMLSDLTNYTSILLGPEATKNHLSGFRFVPINNFQAMLILITDQGHVDNHLVTIPEGTTLSDIERMVNILNERLVGLSLDDLKVQIPMEVKELLGKHVRNYESFMHVFSDSFAQASQQKVYFGGKTNILNQPEFHDINKVREMLHLMEEEQDVYELFRDIPDGLQVKIGRENNNSLMEDCSIITATYNIAGERVGGIVLLGPTRMEYSRMMGLVDVMSRDLTDVLTKLYRDNQN
B11: LexA, the repressor of the SOS regulon (protein, UniProt Q8Y7H7 1-204)
chain: MKISKRQQDIYEFIKSEVKEKGYPPSVREIGEAVGLASSSTVHGHLARLEGKGLIRRDPTKPRAIEILSLEDEAETPNVVNIPIIGKVTAGMPITAIENIDEYFPLPEYMAAGETNVFMLEIDGESMINAGILDGDKVIVRQESSAINGEIVVAMTDENEATCKRFYKEANHFRLQPENDALEPILLNNVTILGKVIGLYRDIR
B12: Lmo1387 pyrrolysin-5-carboxylate reductase (enzyme, UniProt Q8Y7A2 1-279)
chain: MAKIGFIGFGSMASLIATKIIETEVATPEEIILYSNSKNEHFNQFYTKYPTAELADNEAEIFTKADHSFVCKLPLAVLPLMKDCAAVLTPDRHVVSIAAGVSTSDIIEITPGLQVSKLIPSLTTAVNVGTTLIAHAETVNQTNTSWLETTFEHFGHVMTIREENMDIASDLTSSSPGIIAAIFEQFVEAALRRSSLSDAEVFQMINFALAGTSKLLVEEDYTFSGLIQRVATKDGTTAEGVELSKAQLPNFFDELLDRTQNKYASSEKEIQAQKRELLS

Key:
[1] = target: ClpP2, endogenous in L. monocytogenes (L. monocytogenes EGD-e (endogenous)); assay: affinity purification with mass spectrometry
[2] = target: ClpP1, endogenous in L. monocytogenes (L. monocytogenes EGD-e (endogenous)); assay: affinity purification with mass spectrometry

| Binder | binding [1] | binding [2] |
| --- | --- | --- |
| B1 | binds |  |
| B2 | binds |  |
| B3 | binds |  |
| B4 | binds |  |
| B5 | binds |  |
| B6 | binds |  |
| B7 | binds |  |
| B8 |  | binds |
| B9 | binds |  |
| B10 | binds |  |
| B11 | binds |  |
| B12 | binds |  |
